Test results: US11286281B2, “Homodetic cyclic peptides targeting alpha-4-beta-7 integrin” (priority 2017, dated 2022)
Values joined by “and” are separate entries in the source; they are usually repeats but may differ in a detail not shown here. Equal entries are not always repeated. At least one peptide structure holds a part that was inferred or is arguable (an end, a ring closure or a residue).

Biological target: T1, integrin α4β7 (Homo sapiens, UniProt P13612+P26010)
T1 sequence (P13612 34-1032): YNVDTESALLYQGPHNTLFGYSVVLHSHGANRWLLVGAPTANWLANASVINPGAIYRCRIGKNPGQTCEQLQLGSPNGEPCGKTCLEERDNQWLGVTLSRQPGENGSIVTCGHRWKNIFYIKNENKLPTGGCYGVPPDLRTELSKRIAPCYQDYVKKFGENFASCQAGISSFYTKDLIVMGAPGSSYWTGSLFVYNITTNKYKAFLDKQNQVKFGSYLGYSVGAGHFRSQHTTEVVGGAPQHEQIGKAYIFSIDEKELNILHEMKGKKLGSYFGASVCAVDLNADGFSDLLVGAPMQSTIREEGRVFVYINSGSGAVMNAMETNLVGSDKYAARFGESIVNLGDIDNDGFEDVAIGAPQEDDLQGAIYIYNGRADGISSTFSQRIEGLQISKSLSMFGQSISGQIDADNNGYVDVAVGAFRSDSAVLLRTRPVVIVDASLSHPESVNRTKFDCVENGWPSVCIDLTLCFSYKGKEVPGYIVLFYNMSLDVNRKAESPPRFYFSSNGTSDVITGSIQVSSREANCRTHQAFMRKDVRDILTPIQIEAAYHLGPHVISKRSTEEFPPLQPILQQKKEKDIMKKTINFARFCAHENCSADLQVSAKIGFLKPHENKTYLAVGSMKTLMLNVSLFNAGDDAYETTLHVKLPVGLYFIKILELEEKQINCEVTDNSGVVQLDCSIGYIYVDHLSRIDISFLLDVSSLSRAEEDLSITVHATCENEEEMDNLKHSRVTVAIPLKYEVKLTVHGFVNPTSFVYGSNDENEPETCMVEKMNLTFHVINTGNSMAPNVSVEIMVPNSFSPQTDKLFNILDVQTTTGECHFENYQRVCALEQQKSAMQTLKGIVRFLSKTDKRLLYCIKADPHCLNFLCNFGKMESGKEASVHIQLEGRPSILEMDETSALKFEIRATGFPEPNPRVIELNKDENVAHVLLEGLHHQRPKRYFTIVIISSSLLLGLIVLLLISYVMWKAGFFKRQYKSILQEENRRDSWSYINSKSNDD
T1 sequence (P26010 20-798): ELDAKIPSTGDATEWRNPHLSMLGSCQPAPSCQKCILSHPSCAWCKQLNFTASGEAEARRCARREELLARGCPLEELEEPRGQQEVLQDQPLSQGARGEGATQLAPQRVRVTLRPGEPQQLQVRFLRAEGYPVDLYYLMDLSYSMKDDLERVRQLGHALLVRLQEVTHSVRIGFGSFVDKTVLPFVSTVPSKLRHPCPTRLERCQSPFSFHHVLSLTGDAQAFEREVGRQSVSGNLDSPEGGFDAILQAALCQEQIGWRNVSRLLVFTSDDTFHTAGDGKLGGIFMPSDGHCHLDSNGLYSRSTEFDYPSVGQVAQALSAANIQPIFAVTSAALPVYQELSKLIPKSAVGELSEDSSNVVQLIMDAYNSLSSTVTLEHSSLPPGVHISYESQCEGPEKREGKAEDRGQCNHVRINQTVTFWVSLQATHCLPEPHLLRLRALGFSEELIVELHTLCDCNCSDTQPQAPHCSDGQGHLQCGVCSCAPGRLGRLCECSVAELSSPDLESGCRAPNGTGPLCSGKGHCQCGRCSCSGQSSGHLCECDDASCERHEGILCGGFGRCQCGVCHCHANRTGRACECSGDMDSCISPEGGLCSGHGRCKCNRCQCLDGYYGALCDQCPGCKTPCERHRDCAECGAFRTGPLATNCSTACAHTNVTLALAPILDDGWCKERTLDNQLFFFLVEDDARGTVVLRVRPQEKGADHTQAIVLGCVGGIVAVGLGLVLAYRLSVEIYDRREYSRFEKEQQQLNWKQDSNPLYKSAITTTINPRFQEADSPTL
Experiment: Whole blood ligand displacement (receptor occupancy): biotinylated rhMAdCAM-1 binding to α4β7+ Th memory cells
Type: cell-based
Conditions: read-out: MAdCAM-1 Competition IC50 (receptor occupancy)
Experimental: Receptor occupancy (RO) in primary cells was determined by measuring the amount of biotinylated human recombinant MAdCAM-1-FC or human recombinant VCAM-1-Fc bound to selected cell populations using flow cytometry. Human recombinant MAdCAM-1-FC or human recombinant VCAM-1-FC (R&D systems) were biotinylated using commercially available reagents and protocol (Pierce). Whole blood was collected from human donors in sodium heparin tubes. […] Cells were washed twice with 1 mL of 1×DPBS calcium magnesium free(CMF) (ThermoFisher Scientific) and resuspended in 100 μL of DPBS CMF. […] Cells were washed with 1 mL stain buffer-FBS (BD Biosciences) and resuspended in 100 μl stain Buffer-FBS (BD Biosciences) containing 4 mM MnCl2. […] Cells were then washed with 1 mL stain buffer-FBS and resuspended in 100 μl stain buffer-FBS. The cells were incubated in the dark for 30 minutes at room temperature with 1 μl Streptavidin APC (Biolegend 0.2 mg/ml) and a panel of antibodies for the detection of memory T helper a4b7-positive cells subset. And amount of 5.0 μl each of the following antibodies were used; CD45 FITC (BioLegend 200 μg/ml), CD29 APC Cy7 (BioLegend 100 μg/ml), Integrin beta7 PE, (BioLegend concentration 50 μg/mL), CD49d […] (BioLegend 50 μg/mL), CD3 […] […] Cell population were determined using the following markers, CD45+, CD3+, CD4+, CD45RO+, CD49d+, integrin β7, biotinylated ligands.

`CC(C)C[C@@H]1NC(=O)c2ccc(-c3ccc(N4CCN(C(=O)c5ccccc5-c5ccccc5C(=O)N5CCN(c6ccc(-c7ccc8cc7CNC(=O)[C@@H]7CCCN7C(=O)[C@H](C)NC(=O)[C@H]([C@@H](C)O)NC(=O)[C@H](CC(=O)O)NC(=O)[C@H](CC(C)C)NC8=O)cc6)CC5)CC4)cc3)c(c2)CNC(=O)[C@@H]2CCCN2C(=O)[C@H](C)NC(=O)[C@H]([C@@H](C)O)NC(=O)[C@H](CC(=O)O)NC1=O` [Compound 16] was tested, and the IC50 was ~6 nM and 5.81 nM.
